Laboratory results published in patent US20100330697A1, “COMPLEXES OF TRPC DOMAINS AND SESTD1 DOMAINS AND METHODS AND USES INVOLVING THE SAME” (SANOFI-AVENTIS, priority 2007, published 2010).
Results are given in words; binding and its absence hold for the method and conditions named. For some of these results: In cells and extracts the contact can be indirect. Some entries that bind do so weakly or less than the wild type. Tags and fused reporters may be left off the sequences shown.

Sequences of proteins named here, by UniProt entry; tags and fusion partners are left off. A change or cut given only in a name is not applied to a line headed by its entry. A line that says so, or that is headed by a name, gives the form on record, which may keep a tag or linker. Residues count along the entry.
UniProt Q9QUQ5: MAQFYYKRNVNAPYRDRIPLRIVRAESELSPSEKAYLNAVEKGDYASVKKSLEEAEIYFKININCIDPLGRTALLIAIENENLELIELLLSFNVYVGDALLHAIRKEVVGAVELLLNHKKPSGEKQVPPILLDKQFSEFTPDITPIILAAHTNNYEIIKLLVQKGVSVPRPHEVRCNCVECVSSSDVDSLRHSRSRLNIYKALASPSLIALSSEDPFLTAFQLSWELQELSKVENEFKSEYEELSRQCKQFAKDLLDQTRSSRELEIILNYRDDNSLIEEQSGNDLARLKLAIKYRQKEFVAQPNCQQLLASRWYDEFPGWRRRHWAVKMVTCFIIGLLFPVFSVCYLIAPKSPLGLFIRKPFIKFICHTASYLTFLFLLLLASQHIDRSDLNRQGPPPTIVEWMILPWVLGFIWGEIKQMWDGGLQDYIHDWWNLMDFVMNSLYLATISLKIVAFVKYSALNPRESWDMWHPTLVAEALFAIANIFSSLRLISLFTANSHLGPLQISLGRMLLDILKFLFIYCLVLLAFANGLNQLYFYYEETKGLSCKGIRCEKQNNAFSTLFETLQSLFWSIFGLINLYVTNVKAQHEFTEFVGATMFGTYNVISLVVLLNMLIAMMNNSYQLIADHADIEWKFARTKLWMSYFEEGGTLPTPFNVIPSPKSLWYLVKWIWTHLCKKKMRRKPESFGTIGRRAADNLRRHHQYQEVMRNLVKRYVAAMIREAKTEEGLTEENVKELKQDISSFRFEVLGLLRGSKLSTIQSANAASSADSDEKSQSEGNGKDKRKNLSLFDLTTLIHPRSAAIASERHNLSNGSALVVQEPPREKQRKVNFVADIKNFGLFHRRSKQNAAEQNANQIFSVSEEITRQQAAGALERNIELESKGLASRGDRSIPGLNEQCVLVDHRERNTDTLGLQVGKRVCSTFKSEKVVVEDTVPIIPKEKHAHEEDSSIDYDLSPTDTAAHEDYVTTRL
mTRPC4α C-terminus (aa 615-974) overexpressed in HEK293 cells: residues 615-974 of Q9QUQ5
mTRPC4β overexpressed in HEK293 cells (Q9QUQ5, form named): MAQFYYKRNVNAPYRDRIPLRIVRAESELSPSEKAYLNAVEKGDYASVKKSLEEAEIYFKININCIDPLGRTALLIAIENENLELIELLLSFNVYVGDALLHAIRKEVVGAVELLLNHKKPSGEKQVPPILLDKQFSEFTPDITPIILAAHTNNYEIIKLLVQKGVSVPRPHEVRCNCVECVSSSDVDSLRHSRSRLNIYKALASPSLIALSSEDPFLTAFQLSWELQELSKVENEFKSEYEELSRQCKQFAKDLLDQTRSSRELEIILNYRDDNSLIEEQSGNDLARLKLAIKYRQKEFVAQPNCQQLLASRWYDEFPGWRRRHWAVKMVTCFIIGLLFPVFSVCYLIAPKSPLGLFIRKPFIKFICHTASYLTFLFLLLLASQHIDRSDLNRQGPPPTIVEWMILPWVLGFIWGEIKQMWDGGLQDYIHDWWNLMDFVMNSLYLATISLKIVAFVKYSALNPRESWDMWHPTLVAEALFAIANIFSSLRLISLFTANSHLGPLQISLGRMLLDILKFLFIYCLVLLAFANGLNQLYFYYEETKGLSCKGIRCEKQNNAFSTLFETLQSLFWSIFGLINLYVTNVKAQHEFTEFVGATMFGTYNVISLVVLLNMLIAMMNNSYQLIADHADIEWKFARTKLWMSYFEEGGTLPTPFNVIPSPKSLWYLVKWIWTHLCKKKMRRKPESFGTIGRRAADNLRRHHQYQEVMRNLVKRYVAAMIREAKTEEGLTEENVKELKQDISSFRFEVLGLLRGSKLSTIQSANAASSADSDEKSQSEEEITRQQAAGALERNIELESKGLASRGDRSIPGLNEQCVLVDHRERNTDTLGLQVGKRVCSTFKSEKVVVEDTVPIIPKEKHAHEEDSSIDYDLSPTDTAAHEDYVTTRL
UniProt Q9QX29: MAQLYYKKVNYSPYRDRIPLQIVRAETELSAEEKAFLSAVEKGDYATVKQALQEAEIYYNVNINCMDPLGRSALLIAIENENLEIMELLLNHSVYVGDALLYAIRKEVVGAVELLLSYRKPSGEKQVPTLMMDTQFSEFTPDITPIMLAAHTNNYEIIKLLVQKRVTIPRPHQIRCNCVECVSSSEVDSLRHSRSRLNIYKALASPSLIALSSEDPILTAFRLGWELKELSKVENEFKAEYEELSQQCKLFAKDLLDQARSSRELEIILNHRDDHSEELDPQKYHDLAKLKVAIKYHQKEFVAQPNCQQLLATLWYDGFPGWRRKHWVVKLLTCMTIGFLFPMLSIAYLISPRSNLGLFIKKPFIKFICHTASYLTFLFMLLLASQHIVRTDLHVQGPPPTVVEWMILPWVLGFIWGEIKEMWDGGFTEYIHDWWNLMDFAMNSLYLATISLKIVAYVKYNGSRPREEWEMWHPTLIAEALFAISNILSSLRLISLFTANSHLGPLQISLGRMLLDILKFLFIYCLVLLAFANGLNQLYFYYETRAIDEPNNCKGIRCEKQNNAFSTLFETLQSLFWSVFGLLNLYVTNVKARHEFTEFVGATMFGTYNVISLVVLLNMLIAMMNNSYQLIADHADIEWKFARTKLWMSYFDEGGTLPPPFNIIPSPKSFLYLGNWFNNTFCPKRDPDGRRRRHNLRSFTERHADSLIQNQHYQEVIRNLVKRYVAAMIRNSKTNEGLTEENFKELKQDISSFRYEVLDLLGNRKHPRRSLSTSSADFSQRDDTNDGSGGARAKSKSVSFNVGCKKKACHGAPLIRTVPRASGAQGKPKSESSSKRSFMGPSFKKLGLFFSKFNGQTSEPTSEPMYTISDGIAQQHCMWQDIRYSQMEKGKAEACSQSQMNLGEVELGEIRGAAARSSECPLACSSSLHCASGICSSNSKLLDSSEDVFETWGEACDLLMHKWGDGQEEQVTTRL
UniProt P04386: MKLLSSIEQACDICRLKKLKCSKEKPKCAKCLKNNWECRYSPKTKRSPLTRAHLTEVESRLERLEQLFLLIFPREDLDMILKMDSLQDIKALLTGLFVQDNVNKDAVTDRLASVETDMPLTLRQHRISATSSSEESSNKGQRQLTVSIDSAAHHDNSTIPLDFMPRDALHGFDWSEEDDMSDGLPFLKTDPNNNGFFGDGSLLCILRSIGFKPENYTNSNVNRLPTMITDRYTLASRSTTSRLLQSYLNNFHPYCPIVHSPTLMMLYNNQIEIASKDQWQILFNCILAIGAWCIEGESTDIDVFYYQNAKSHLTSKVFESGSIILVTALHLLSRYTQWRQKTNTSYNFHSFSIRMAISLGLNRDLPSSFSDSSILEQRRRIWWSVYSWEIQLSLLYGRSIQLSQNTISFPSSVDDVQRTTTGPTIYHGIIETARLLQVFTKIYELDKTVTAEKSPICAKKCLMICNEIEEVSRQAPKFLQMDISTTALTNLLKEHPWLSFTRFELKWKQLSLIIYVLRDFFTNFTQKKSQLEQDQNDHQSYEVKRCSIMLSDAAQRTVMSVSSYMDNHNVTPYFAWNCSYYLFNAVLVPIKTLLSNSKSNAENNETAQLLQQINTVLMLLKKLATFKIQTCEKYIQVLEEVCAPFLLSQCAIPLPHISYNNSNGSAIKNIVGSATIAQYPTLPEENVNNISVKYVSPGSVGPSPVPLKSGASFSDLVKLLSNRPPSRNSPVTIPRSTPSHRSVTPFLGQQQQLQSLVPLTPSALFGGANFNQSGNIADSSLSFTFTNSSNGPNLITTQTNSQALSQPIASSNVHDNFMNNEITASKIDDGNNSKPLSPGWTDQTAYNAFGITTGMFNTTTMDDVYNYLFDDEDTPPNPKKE

Tests used:
[1] = target: mTRPC4α C-terminus (aa 615-974) overexpressed in HEK293 cells (murine) (UniProt Q9QUQ5); assay: GST pulldown from HEK293 lysate, anti-TRPC4 Western blot
[2] = target: mTRPC4β overexpressed in HEK293 cells (murine) (UniProt Q9QUQ5); assay: as above
[3] = target: mTRPC4α overexpressed in HEK293 cells (murine) (UniProt Q9QUQ5); assay: as above
[4] = target: mTRPC5 overexpressed in HEK 293 cells (murine) (UniProt Q9QX29); assay: GST pulldown from HEK293 lysate, Western blot
[5] = target: mTRPC4β overexpressed in HEK293 cells (murine) (UniProt Q9QUQ5); assay: GST pulldown from HEK293 lysate, Western blot
[6] = target: mTRPC4α overexpressed in HEK293 cells (murine) (UniProt Q9QUQ5); assay: GST pulldown from HEK293 lysate, Western blot
[7] = target: mTRPC5 overexpressed in HEK 293 cells (murine) (UniProt Q9QX29); assay: GST pulldown from HEK293 lysate, anti-TRPC5 Western blot
[8] = target: T1, mTRPC4α (615-974)/leucine zipper/pGBKT7 (murine, UniProt P04386 1-147; Q9QUQ5 615-974); assay: directed yeast two-hybrid, growth on selective media
T1 construct: Yeast two-hybrid bait in yeast AH109; the order here follows the printed construct name behind the GAL4 DNA-BD; The zipper is said to direct tetramerization; also called mTRPC4a C-terminus

[9] = target: C-terminus of mTRPC5, yeast two-hybrid bait (murine) (UniProt P04386+Q9QX29); assay: as above

B1: GST-SESTD1 (protein, human, UniProt Q86VW0 1-696, looked up, not shown: a dimerising Fc or GST)
chain: MEASVILPILKKKLAFLSGGKDRRSGLILTIPLCLEQTNMDELSVTLDYLLSIPSEKCKARGFTVIVDGRKSQWNVVKTVVVMLQNVVPAEVSLVCVVKPDEFWDKKVTHFCFWKEKDRLGFEVILVSANKLTRYIEPCQLTEDFGGSLTYDHMDWLNKRLVFEKFTKESTSLLDELALINNGSDKGNQQEKERSVDLNFLPSVDPETVLQTGHELLSELQQRRFNGSDGGVSWSPMDDELLAQPQVMKLLDSLREQYTRYQEVCRQRSKRTQLEEIQQKVMQVVNWLEGPGSEQLRAQWGIGDSIRASQALQQKHEEIESQHSEWFAVYVELNQQIAALLNAGDEEDLVELKSLQQQLSDVCYRQASQLEFRQNLLQAALEFHGVAQDLSQQLDGLLGMLCVDVAPADGASIQQTLKLLEEKLKSVDVGLQGLREKGQGLLDQISNQASWAYGKDVTIENKENVDHIQGVMEDMQLRKQRCEDMVDVRRLKMLQMVQLFKCEEDAAQAVEWLSELLDALLKTHIRLGDDAQETKVLLEKHRKFVDVAQSTYDYGRQLLQATVVLCQSLRCTSRSSGDTLPRLNRVWKQFTIASEERVHRLEMAIAFHSNAEKILQDCPEEPEAINDEEQFDEIEAVGKSLLDRLTVPVVYPDGTEQYFGSPSDMASTAENIRDRMKLVNLKRQQLRHPEMVTTES
binding [1]: binds

B2: GST-Spec 1 (aa 193-406) (protein, human, UniProt Q86VW0 193-406, looked up, not shown: a dimerising Fc or GST)
chain: ERSVDLNFLPSVDPETVLQTGHELLSELQQRRFNGSDGGVSWSPMDDELLAQPQVMKLLDSLREQYTRYQEVCRQRSKRTQLEEIQQKVMQVVNWLEGPGSEQLRAQWGIGDSIRASQALQQKHEEIESQHSEWFAVYVELNQQIAALLNAGDEEDLVELKSLQQQLSDVCYRQASQLEFRQNLLQAALEFHGVAQDLSQQLDGLLGMLCVDVA
binding [2]: binds | binding [3]: binds | binding [4]: binds | binding [5]: binds | binding [6]: binds | binding [7]: binds

B3: SESTD1-Spec 1 (aa 193-406), GAL4 activation domain fusion (protein, human, UniProt Q86VW0 193-406, looked up, not shown: large carriers)
chain: B2 chain
binding [8]: binds | binding [9]: binds

B4: SESTD1-Spec 2 (aa 407-696), GAL4 activation domain fusion (protein, human, UniProt Q86VW0 407-696, looked up, not shown: large carriers)
chain: PADGASIQQTLKLLEEKLKSVDVGLQGLREKGQGLLDQISNQASWAYGKDVTIENKENVDHIQGVMEDMQLRKQRCEDMVDVRRLKMLQMVQLFKCEEDAAQAVEWLSELLDALLKTHIRLGDDAQETKVLLEKHRKFVDVAQSTYDYGRQLLQATVVLCQSLRCTSRSSGDTLPRLNRVWKQFTIASEERVHRLEMAIAFHSNAEKILQDCPEEPEAINDEEQFDEIEAVGKSLLDRLTVPVVYPDGTEQYFGSPSDMASTAENIRDRMKLVNLKRQQLRHPEMVTTES
binding [9]: binds
